Data as given in patent US20250084172A1.
Substitutions are numbered along the chain they refer to. Results are given in words; binding and its absence hold for the method and conditions named. Some results given as binding are weak or reduced against the parent protein; the word gives no strength. For part of these data: Sequences can lack the tags named with a protein. Each block holds one binder with its values, some of them ahead of it.

Assays:
[1] = target: T1, human ULBP6 (haplotype not stated) (human) (UniProt Q5VY80); experiment: summary of the screening
T1 sequence (looked up): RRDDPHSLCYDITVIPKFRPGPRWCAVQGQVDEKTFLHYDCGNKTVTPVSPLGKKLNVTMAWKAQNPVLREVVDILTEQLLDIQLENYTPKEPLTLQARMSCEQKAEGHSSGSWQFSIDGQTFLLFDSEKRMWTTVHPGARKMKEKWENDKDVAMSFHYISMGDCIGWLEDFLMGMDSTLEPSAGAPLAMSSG

[2] = target: T1, human ULBP6 (haplotype not stated) (human); experiment: description of the control antibody
[3] = target: T2, human ULBP6 displayed on M13 phage (ULBP6-HA-pIII) (human) (UniProt Q5VY80); experiment: phage ELISA, antibody coated, anti-M13-HRP detection
T2 sequence: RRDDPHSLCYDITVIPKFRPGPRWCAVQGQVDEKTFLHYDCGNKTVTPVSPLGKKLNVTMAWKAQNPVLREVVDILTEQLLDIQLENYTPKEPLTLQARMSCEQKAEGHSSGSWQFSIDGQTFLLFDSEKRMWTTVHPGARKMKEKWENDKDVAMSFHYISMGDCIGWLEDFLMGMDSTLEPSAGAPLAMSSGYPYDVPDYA

[4] = target: T2, human ULBP6 displayed on M13 phage (ULBP6-HA-pIII) (human); experiment: phage ELISA: plate coated with the antibody, ULBP6 phage titrated in 3-fold steps from 1.0 O.D./mL, HRP anti-M13 detection, O.D. 450
[5] = target: T1, human ULBP6 (haplotype not stated) (human); experiment: tool antibody properties (FIG. 3A and FIG. 3B)

B2: humanized 1D4 (h1D4), Fc version not stated (antibody, V domains shown)
VH: EIQLVQSGSELKKPGASVKVSCKASGYTFTEYPIHWVRQAPGQGFEWMGMIYTDTGEPTHAEEFKGRFVFSLDTSVSTAYLQISSLKAEDTAVYFCVRWYDGSSYIMDYWGQGTTVTVSS
VL: DIQMTQSPSSLSASVGDRVTITCKASQDINSYLSWFQQKPGKSPKTLIYRANRLVDGVPSRFSGSGSGQDYTFTISSLQPEDIATYYCLQYDEFPLTFGGGTKVEIK
- binding [3]: binds
- binding [4]: binds

B5: Humanized 7B3 (h7B3) (E-) (antibody, human IgG1, kappa, N297G, V domains shown)
VH: EVQLVESGGGLVQPGGSLRLSCAASGFTFSTYGFHWVRQAPGKGLEWVAYISSNSGTIDYADTVKGRFTISRDNAKNSLYLQMNSLRAEDTAVYYCARQGYGFDNWGQGTTVTVSS
VL: DIQLTQSPSSLSASVGDRVTITCSASSRVSYMNWYQQKPGKSPKIWVYGISNLASGVPSRFSGSGSGTDFTFTISSLQPEDIATYYCQQRSSHPLTFGGGTKVEIKR
- binding [5]: binds

More lines, now with the values ahead:

- binding [1]: binds
- binding [2]: binds
- binding [3]: binds
B1: humanized 8E8 (h8E8), Fc version not stated (antibody, V domains shown)
VH: QVQLVQSGAEVKKPGSSVKVSCKASGYTFTTYGITWVRQAPGQGLEWIGEIYPGTATSYSNERFKGRATLTADRSTSTAYMELSSLRSEDTAVYFCARRGTYGTYEWYFDVWGRGTLVTVSS
VL: DIQMTQSPSSLSASVGDRVTITCRASENIYSHLAWYQQKPGKSPKLLVYAATNLADGVPSRFSGSGSGTDYTLTISSLQPEDFATYYCQHFWGTPWTFGGGTKVEIK

- binding [3]: binds
- binding [4]: binds
B3: humanized 6E1 (h6E1), Fc version not stated (antibody, V domains shown)
VH: EVQLVQSGAEVKKPGASVKVSCKASGYTFTNYWMHWMRQAPGQGLEWLGRIHPSDSDTNYNQKFKGRATLTVDKSISTAYMELSRLRSDDTAVYYCAIEGTGKGYFDVWGRGTLVTVSS
VL: B2 VL with N30Y, Y71F, F73L, I83F, Q90H

- binding [3]: binds
- binding [4]: binds
B4: humanized 7B3 (h7B3), Fc version not stated (antibody, V domains shown)
VH: B5 VH
VL: DIQLTQSPSSLSASVGDRVTITCSASSRVSYMNWYQQKPGKSPKIWVYGISNLASGVPSRFSGSGSGTDFTFTISSLQPEDIATYYCQQRSSHPLTFGGGTKVEIK

- binding [3]: binds
- binding [4]: binds
B6: humanized 8E11 (h8E11), Fc version not stated (antibody, V domains shown)
VH: B5 VH with S30R, F34M, N54G, A97T, G100T, Y101G, G102A, F103M, N105Y, T111L
VL: EIVLTQSPATLSLSPGERATLSCSASSSVSYMNWYQQKPGQSPRLWIYGISNLASGVPARFSGSGSGTDFTLTISSLEPEDFAVYYCQQRSSHPLTFGGGTKVEIK
